Source: PubChem BioAssay AID1053208 (Peter MacCallum Cancer Centre, 2014)
Aim: 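Genes whose silencing cuts survival of bone tumour cells only with doxorubicin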 (primary screen). Cell system: mouse osteosarcoma cells, early-passage culture from an engineered mouse model of fibroblastic bone tumour. Reagent: siRNA pool against mouse genes, 40 nM. Timing: about 120 h (48 h before drug, then 72 h with drug). Challenge: doxorubicin 100 nM for 72 h, roughly 30-40% inhibitory dose. Measured: 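Viability read as ATP luminescence after 72 h of 100 nM doxorubicin or none, duplicate wells averaged, scaled to non-targeting siRNA, then expressed as robust z-scores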. Scale: viability z-score with doxorubicin: higher = more viable cells under doxorubicin; viability z-score without drug: higher = more viable cells with knock-down alone. Call rule: 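a pool counts as active when its viability z-score with doxorubicin is -2 or below and its z-score without drug lies between -2 and 2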.
Here is an unselected part of about 17,000 reagents tested. Of all reagents, 788 (4.7%) got an active call. 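Calls rest on z-score classes alone; an extra cut-off of viability at most 70% of control was not applied to them.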 Unmarked entries are inactive. Reagents against one gene are numbered here. Not all columns of the deposit are shown. Reagent sequences are not shown.

With knock-down of Cd86 the results were combined z-score class no change with or without drug; viability z-score with doxorubicin 0.56; viability z-score without drug -0.17.
Silencing of Or8d23 gave: combined z-score class no change with or without drug; viability z-score with doxorubicin -0.9; viability z-score without drug -1.35.
For Agpat2 the deposit lists combined z-score class no change with or without drug; viability z-score with doxorubicin -1.57; viability z-score without drug -0.84.
Gda showed combined z-score class no change with or without drug; viability z-score with doxorubicin 0.34; viability z-score without drug 1.85.
After knock-down of Ghrhr the results were combined z-score class no change with or without drug; viability z-score with doxorubicin -0.9; viability z-score without drug 0.
With knock-down of Serpinb3c the results were combined z-score class no change with or without drug; viability z-score with doxorubicin 1.8; viability z-score without drug 1.35.
Silencing of Spart gave: combined z-score class no change with or without drug; viability z-score with doxorubicin 0.45; viability z-score without drug -0.17.
For Kit the deposit lists combined z-score class no change with or without drug; viability z-score with doxorubicin 0; viability z-score without drug -1.85.
Upk1b scored combined z-score class no change with or without drug; viability z-score with doxorubicin -0.9; viability z-score without drug -0.84.
Depletion of Tbc1d15 gave: combined z-score class no change with or without drug; viability z-score with doxorubicin 1.24; viability z-score without drug 1.35.
After knock-down of Vmn1r227, the screen gave combined z-score class no change with or without drug; viability z-score with doxorubicin -0.11; viability z-score without drug -0.51.
For Cd96 the deposit lists combined z-score class no change with or without drug; viability z-score with doxorubicin 0.45; viability z-score without drug 0.84.
Against Syn1, the values are combined z-score class no change with or without drug; viability z-score with doxorubicin 1.35; viability z-score without drug -0.34.
Knock-down of Epgn came out at: combined z-score class low cell count with doxorubicin only (active); viability z-score with doxorubicin -2.25; viability z-score without drug -0.51.
For Vps36, the values are combined z-score class no change with or without drug; viability z-score with doxorubicin -1.12; viability z-score without drug 1.18.
Pde4d #1 scored combined z-score class no change with or without drug; viability z-score with doxorubicin -0.45; viability z-score without drug -1.18.
Pde4d #2 showed combined z-score class low cell count with doxorubicin only (active); viability z-score with doxorubicin -2.7; viability z-score without drug -0.84.
With knock-down of Ihh the results were combined z-score class no change with or without drug; viability z-score with doxorubicin 0.45; viability z-score without drug 0.51.
Depletion of Etf1 came out at: combined z-score class low cell count with and without drug; viability z-score with doxorubicin -4.72; viability z-score without drug -4.55.
Against Ubc, the entry reads combined z-score class no change with or without drug; viability z-score with doxorubicin -1.12; viability z-score without drug -0.51.
For Gsdmc3, the values are combined z-score class no change with or without drug; viability z-score with doxorubicin 1.46; viability z-score without drug 1.69.
Knock-down of Or2ag12 came out at: combined z-score class no change with or without drug; viability z-score with doxorubicin 0.22; viability z-score without drug -1.18.
Depletion of Ddx42 gave: combined z-score class no change with or without drug; viability z-score with doxorubicin -0.34; viability z-score without drug -0.51.
Il15 scored combined z-score class no change with or without drug; viability z-score with doxorubicin 1.57; viability z-score without drug 0.84.
For Lrrc72 the deposit lists combined z-score class no change with or without drug; viability z-score with doxorubicin -1.12; viability z-score without drug -1.18.
Depletion of Or51ah3 gave: combined z-score class no change with or without drug; viability z-score with doxorubicin -0.9; viability z-score without drug -0.17.
Depletion of Terf2 resulted in: combined z-score class no change with or without drug; viability z-score with doxorubicin -0.67; viability z-score without drug -1.01.
Knock-down of Rp9 came out at: combined z-score class no change with or without drug; viability z-score with doxorubicin 0.22; viability z-score without drug 1.01.

Individual results from the list:
Under “viability z-score with doxorubicin”, Tbc1d15 has 1.24
Value of Cd86 under “viability z-score with doxorubicin”: 0.56
Result for Agpat2 in “viability z-score with doxorubicin”: -1.57
